The assay concerns SRS-A-mediated bronchoconstriction after ovalbumin (OVA) challenge in guinea pigs. Briefly: SRS-A-mediated (OVA-induced) bronchoconstriction in anaesthetized, mechanically ventilated sensitized guinea pigs. Format: in vivo, guinea pig. Conditions: Cavia porcellus. The protocol: To assess the additive or synergistic inhibitory effect of the selective phosphodiesterase-4 inhibitor ROFLUMILAST combined with the leukotriene receptor antagonist MONTELUKAST both orally administered 1 h before ovalbumin (OVA) challenge on the early, mainly leukotriene-mediated (SRS-A=slow reacting substance of anaphylaxis) bronchoconstriction in anaesthetized, mechanically ventilated guinea pigs. Male Dunkin Hartley guinea pigs; body weight 200-250 g at sensitization and 350-500 g when performing the experiments. Ovalbumin (OVA) was used as allergen for active sensitization. Therefore, 20 μg OVA together with 20 mg Al(OH)3 suspended in 0.5 ml 0.9% NaCl-solution (=saline) were administered i.p. to each animal on 2 consecutive days. […] Controls received the drug-free methocel-solution 1 h before OVA-challenge as placebo (n=12). […] The time-effect curve for the delta-%-decrease of compliance and conductance was determined up to 12 min post challenge. Blood pressure and heart rate were monitored to control vitality. The area under the time-delta-%-decrease curves (AUC) was determined for each animal. On basis of the AUC-values, the inhibition of the SRS-A-induced decrease of compliance and conductance was calculated in reference to placebo. […] Measured and calculated ED50-values were compared by an unpaired t-test for statistical significant differences.

This is an account of results in patent US20050014762A1, “Combination” (priority 2001, published 2005).

Several values for one entry are separate records, joined by “and”; a condition that tells them apart may be missing. Equal entries are not always repeated. Where two headings read alike, the source gives them in different places.

On to `CC(C)(O)c1ccccc1CC[C@@H](SCC1(CC(=O)[O-])CC1)c1cccc(/C=C/c2ccc3ccc(Cl)cc3n2)c1.[Na+]` [MONTELUKAST sodium salt, 2-[1-[1(R)-[3-[2(E)-(7-chloroquinolin-2-yl)vinyl]phenyl]-3-[2-(1-hydroxy-1-methylethyl)phenyl]propylsulfanylmethyl]cyclopropyl]acetic acid sodium salt], for which the ED50 runs as follows: (read-out: ED50, inhibition of decrease of airway compliance) 0.053 mg/kg and 0.086 µmol/kg; (read-out: ED50, inhibition of decrease of airway conductance) 0.055 mg/kg and 0.09 µmol/kg.
